# The other results are listed elsewhere or left out.
# B1: il10ra_site1_normal_mot_HHH_b2_05813_000000266_0001_1_19_H_._HHH_b1_02684_0001_0000500010_0000001_0_af2pred_0001 (protein)
# chain: SSSSSSEEFLFEVLVEARRLLEKGNPEEAQEVIEEAREHAEERNDEHVLLILEAALRILESSSSS
# B2: il10ra_site1_sap_27_mot_HHH_b2_08186_000000021_0001_43_56_H_._HHH_b2_01381_0001_0000600034_0000001_0_0001 (protein)
# chain: SSSSDEAYEIAREAAEKANQLWEQGNEEEARELIEEALEELEKLGNWAALWALRHMLRANSSSSS
# B3: il10ra_site1_normal_mot_HHH_b2_05423_000000119_0001_22_38_H_._HHH_b2_02720_0001_0000400043_0000001_1_af2pred_0001 (protein)
# chain: SSSSSEEELLKRLLEAVKRAAEQNDPHRVEAALRDAKHTAEFLNDEEVLEELERLEEEFNSSSSS
# B4: il10ra_site1_sap_22_mot_HHH_b1_00169_000000276_0001_1_18_H_._HHH_b1_00842_0001_0000200007_0000001_0_0001 (protein)
# chain: SSSSDEEREELYEILEEVIKLASEGDEEEFEELVREAEELAKELGNWVVRHVLELLRRDLSSSSS
# B5: il10ra_site1_normal_mot_HHH_b1_00999_000000080_0001_41_55_H_._HHH_b1_00228_0001_0000300021_0000001_0 (protein)
# chain: SSSSDVEEEVEELLEEAKEIPDPRELSRVLLEALRLALEASDQELLQLVWRVVKELGERLSSSSS
# B6: il10ra_site1_normal_mot_HHH_b2_03220_af2_000000223_0001_23_40_H_._HHH_b1_01064_0001_0000400033_0000002_0 (protein)
# chain: SSSSSEERERVWELIRRVLELRAQGDPEEARELLEEARELAEEANSPVLRFALRLLEEQLSSSSS
# B7: il10ra_site1_sap_18_mot_HHH_b1_06341_af2_000000167_0001_17_35_H_._HHH_b2_05323_0001_0000300018_0000001_0_0001 (protein)
# chain: SSSSDEAEELYRLSEEAMELAAEGNPEEAREVVREAIELAEEANNRVLLFVLRHVLEQLESSSSS
# B8: il10ra_site1_sap_12_mot_HHH_b2_07532_000000061_0001_23_39_H_._HHH_b2_03266_0001_0000500042_0000001_0_0001 (protein)
# chain: SSSSDEREAYELSREAAELDSEGDPEKAEEVLEEALELAEELNNMNIVMVIRYILRLVRENSSSS
# B9: il10ra_site1_sap_26_mot_HHH_b2_03183_af2_000000055_0001_40_56_H_._HHH_b1_06195_0001_0000200011_0000001_1_0001_af2pred_0001 (protein)
# chain: SSSSDLVEEVKRLLEEALKLLKEGDEEEARRLVEEAKELAERNNNLLLLRSIEAIERVVNSSSSS
# B10: il10ra_site1_sap_16_mot_HHH_b1_06048_000000117_0001_42_56_H_._HHH_b1_00210_0001_0000200020_0000001_0_0001 (protein)
# chain: SSSSDEAYRLAKRAIEEATRLWREGNPEEARRLLQEALEELEELGNWAAVWAIRHLLKALSSSSS
# B11: il10ra_site1_sap_4_mot_HHH_b2_01447_af2_000000258_0001_1_20_H_._HHH_b1_07772_0001_0000100001_0000002_0_0001 (protein)
# chain: SSSSDTRELYRLSREAMELLARGNPEEAEKVLEEAIEIAREAGDFNFLFNLEHVLKVIEQSSSSS
# B12: il10ra_site1_normal_mot_HHH_b2_05896_000000051_0001_1_18_H_._HHH_b1_01447_0001_0000400020_0000001_0 (protein)
# chain: SSSSSSDEEFRKILELIEKASQIEDPEERREVLEEAEELAEEAGNELLEESVRFVARLLSSSSSS
# B13: il10ra_site1_normal_mot_HHH_b2_00441_000000147_0001_1_18_H_._HHH_b1_01947_af2_0001_0000200006_0000001_1_af2pred_0001 (protein)
# chain: SSSSSERDREFARRALRLAEFLYKQGDHEAVERAFEAVEDLAKLTNDPEIEEILEEIEELLSSSS
# B14: il10ra_site1_normal_mot_HHH_b1_00929_000000068_0001_1_20_H_._HHH_b2_07604_0001_0000100006_0000002_0 (protein)
# chain: SSSDALEEVWELIREAVEALEQGDQERAEELVEEAREIAEEANNILARFAVRAIERAVRLRSSSS
# B15: il10ra_site1_sap_19_mot_HHH_b2_00076_000000055_0001_40_55_H_._HHH_b1_00748_0001_0000100001_0000001_0_0001 (protein)
# chain: SSSSSDEVYRLIKKAIELLAEGNPEEAKKVLEEAEELAERAGNRILVWAIRFAEELLERQSSSSS
# B16: il10ra_site1_sap_22_mot_HHH_b1_03574_000000194_0001_1_18_H_._HHH_b1_05657_0001_0000100016_0000001_0_0001 (protein)
# chain: SAEEKLEELAEEAGIPPEELERLIELVARLAGVPPELVLDAIEQIARQSRVPPAEAARILVRAYR
# B17: il10ra_site1_sap_17_mot_HHH_b2_07758_000000036_0001_41_55_H_._HHH_b2_04674_0001_0000400046_0000002_0_0001 (protein)
# chain: SSSSSARELYELLRRAMELLRNGNPEEARKLLEEAQEIAEEANNRVLLLNIRYVLRQVERNSSSS
# B18: il10ra_site1_sap_23_mot_39ab2cb694c8b9c1dc7e65c0d672c93e_0001_000000036_0001_53_65_H_._HHH_b2_08014_af2_0001_0000200003_0000002_0_0001 (protein)
# chain: SSSSSDEEIEERVEELLEEAERITDPRKAIELLLEATHLAWEAQDPELLRLVWRVVHRLSSSSSS
# B19: il10ra_site1_sap_22_mot_HHH_b2_02447_000000247_0001_1_18_H_._HHH_b2_07579_0001_0000100003_0000001_0_0001 (protein)
# chain: SSSSSSDLEELVEEAEEVAEERGNRAAAFLLRQALEAYKLAGDPHVEENIRNLLRLVLSSSSSSS
# Molecular target: il10ra, Q13651
# Assay: yeast display titration
row,Binder,apparent Kd
1,B1,inactive: no binding seen
2,B2,inactive: no binding seen
3,B3,inactive: no binding seen
4,B4,inactive: no binding seen
5,B5,inactive: no binding seen
6,B6,inactive: no binding seen
7,B7,inactive: no binding seen
8,B8,inactive: no binding seen
9,B9,inactive: no binding seen
10,B10,inactive: no binding seen
11,B11,inactive: no binding seen
12,B12,inactive: no binding seen
13,B13,inactive: no binding seen
14,B14,inactive: no binding seen
15,B15,inactive: no binding seen
16,B16,inactive: no binding seen
17,B17,inactive: no binding seen
18,B18,inactive: no binding seen
19,B19,inactive: no binding seen

# Quoted from above, nos. 6–10
row,Binder,apparent Kd
6,B6,inactive: no binding seen
7,B7,inactive: no binding seen
8,B8,inactive: no binding seen
9,B9,inactive: no binding seen
10,B10,inactive: no binding seen

# Source: publication PMC10163288
